This experiment deals with T1, melanoma cell adhesion molecule (MCAM) (human (endogenous in MG63 and U2OS)) (UniProt P43121).
T1 sequence: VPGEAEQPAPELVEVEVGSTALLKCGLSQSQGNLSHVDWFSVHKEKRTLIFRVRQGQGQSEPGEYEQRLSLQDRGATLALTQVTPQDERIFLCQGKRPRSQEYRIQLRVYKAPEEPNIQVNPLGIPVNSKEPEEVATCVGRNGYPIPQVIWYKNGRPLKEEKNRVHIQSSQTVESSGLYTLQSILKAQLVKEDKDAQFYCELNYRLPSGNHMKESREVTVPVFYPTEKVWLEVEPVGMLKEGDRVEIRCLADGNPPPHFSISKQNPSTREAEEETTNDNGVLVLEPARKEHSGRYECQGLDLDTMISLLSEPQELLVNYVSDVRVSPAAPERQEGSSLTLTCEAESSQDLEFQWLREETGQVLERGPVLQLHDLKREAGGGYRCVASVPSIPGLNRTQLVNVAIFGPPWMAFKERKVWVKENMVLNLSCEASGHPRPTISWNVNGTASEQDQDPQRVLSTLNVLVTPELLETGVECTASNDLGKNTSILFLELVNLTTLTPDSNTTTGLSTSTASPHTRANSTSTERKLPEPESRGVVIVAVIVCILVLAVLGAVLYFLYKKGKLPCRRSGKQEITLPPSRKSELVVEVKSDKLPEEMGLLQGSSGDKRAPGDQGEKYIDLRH
Put plainly: co-IP; Pierce Co-IP kit; MG63 and U2OS cells lysed in IP lysis buffer; supernatants incubated 6 h with G-agarose beads coated with antibody against METTL2 (so in the source) or MCAM; detection by western blot. Background: Immunoblotting shows a protein as a band on a membrane.

Sequences of proteins named here, by UniProt entry; tags and fusion partners are left off.
UniProt Q86U44: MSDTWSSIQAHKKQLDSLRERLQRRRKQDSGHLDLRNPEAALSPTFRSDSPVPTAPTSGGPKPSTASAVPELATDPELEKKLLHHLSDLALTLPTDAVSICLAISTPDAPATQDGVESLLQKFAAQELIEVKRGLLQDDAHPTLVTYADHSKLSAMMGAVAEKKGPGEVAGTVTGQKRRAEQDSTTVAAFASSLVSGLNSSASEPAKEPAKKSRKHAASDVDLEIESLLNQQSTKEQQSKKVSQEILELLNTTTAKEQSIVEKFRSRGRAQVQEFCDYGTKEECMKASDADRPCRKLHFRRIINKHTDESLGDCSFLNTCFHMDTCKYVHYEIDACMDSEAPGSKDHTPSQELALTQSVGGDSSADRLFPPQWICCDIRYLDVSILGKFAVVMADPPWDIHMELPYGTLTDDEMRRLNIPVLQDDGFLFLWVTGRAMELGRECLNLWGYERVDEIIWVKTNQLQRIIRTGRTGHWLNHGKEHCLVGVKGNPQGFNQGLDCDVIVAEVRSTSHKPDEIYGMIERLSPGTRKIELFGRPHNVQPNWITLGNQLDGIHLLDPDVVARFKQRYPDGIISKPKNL

Results are given in words; binding and its absence hold for the method and conditions named. Binding seen in cells or lysates may run through a third protein. Some binding calls cover weakened binding; strength is not graded here.

Take “methyltransferase 3 (METTL3) (from UniProt Q86U44 1-580)”: the binding entry is reported as “binds”.

The values are drawn from publication PMC11157866.
